Laboratory results: PubChem BioAssay AID504764 (Drosophila RNAi Screening Center, 2011)

Purpose: 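Genes whose knock-down alters Notch-dependent transcription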 (primary screen)
Cells: Drosophila Kc167 cells
Reagents: long dsRNA against Drosophila genes
Timing: about 5 days (4 days dsRNA, then 24 h after transfection)
Conditions: transfection of constitutively active membrane-tethered Notch lacking the extracellular domain, read 24 h later
Measured: 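Light from a Notch-responsive E(spl)m3 luciferase reporter under active Notch, with control-promoter and no-Notch reporter wells to normalise; raw counts from paired wells a and b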
Direction: induced reporter light, run 1, well a and induced reporter light, run 1, well b: higher = more light from the Notch target reporter with active Notch; control promoter light, run 1, well a and control promoter light, run 1, well b: higher = more light from the viral control promoter (cell number, transfection, viability); uninduced reporter light, run 1, well a: higher = more light from the Notch target reporter without active Notch
Hit rule: 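Wells with low control signal or poorly matching duplicates excluded; duplicates averaged; per source plate, z beyond ±2 for induced/control log2 ratio or beyond ±1.8 for induced/uninduced marks a hit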
Calls: active = modifier hit (raised or lowered Notch signal); inactive = not a hit
In all, the deposit lists about 22,000 reagents; below is a random part of those with a known target gene and a result. In the full data, 403 (1.9%) are marked active. 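Unnormalised raw counts per well; ratio z-scores behind the hit calls and whether each hit raises or lowers signal are not deposited.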 The numbers tell different reagents against one gene apart. Names joined by + are all predicted targets of the reagent. The record does not give: the amount of reagent.

gene,reagent,"induced reporter light, run 1, well a","induced reporter light, run 1, well b","control promoter light, run 1, well a","control promoter light, run 1, well b","uninduced reporter light, run 1, well a",outcome
ind (intermediate neuroblasts defective),1,11695,9028,13030,13555,3990,inactive
Tsp42El (Tetraspanin 42El),1,1.82e5,2.34e5,2.21e5,2.49e5,18820,inactive
akirin,1,1.20e5,1.04e5,94655,55340,8715,inactive
Hibch (3-hydroxyisobutyryl-CoA hydrolase),1,1.55e5,1.44e5,97395,81110,9345,inactive
Brr2 (Brr2 U5 snRNP complex subunit),1,27200,23950,15065,15350,1575,inactive
inaE (inactivation no afterpotential E),1,1.16e5,1.16e5,1.27e5,1.22e5,16965,inactive
inaE (inactivation no afterpotential E),2,1.85e5,1.98e5,2.35e5,3.03e5,13420,inactive
inaE (inactivation no afterpotential E),3,88985,82445,81300,82975,10655,inactive
inaE (inactivation no afterpotential E),4,88575,95760,1.16e5,1.05e5,9140,inactive
Herc4 (HECT and RLD domain containing E3 ubiquitin ligase 4),1,1.46e5,2.28e5,2.74e5,2.99e5,10170,inactive
GstE13 (Glutathione S transferase E13),1,1.62e5,2.01e5,1.89e5,2.05e5,12710,inactive
CG44001 + CG33995,1,1.32e5,1.00e5,1.35e5,1.70e5,8185,inactive
CG44001 + CG33995,2,2.15e5,2.24e5,2.82e5,2.88e5,18570,inactive
Rabex-5 (Rabaptin-5-associated exchange factor for Rab5),1,98730,1.15e5,1.95e5,2.25e5,8865,inactive
Drsl5 (Drosomycin-like 5),1,1.03e5,1.22e5,1.44e5,1.44e5,8775,inactive
Grip91 (Gamma-tubulin ring protein 91),1,1.98e5,1.96e5,2.40e5,2.73e5,14625,inactive
CG3270,1,2.07e5,1.76e5,1.57e5,1.80e5,14080,inactive
CG13040,1,2.30e5,2.18e5,2.84e5,3.30e5,7325,inactive
robl37BC,1,1.43e5,73390,86945,78575,5455,inactive
Tsp97E (Tetraspanin 97E),1,1.74e5,1.65e5,2.25e5,2.34e5,15645,inactive
TBC1D23 (TBC1 domain family member 23),1,88380,96225,78735,47210,7820,inactive
Recs1,1,3.07e5,3.32e5,2.88e5,2.84e5,24015,inactive
CG9411,1,1.74e5,1.65e5,2.59e5,1.76e5,11350,inactive
CG31161,1,1.37e5,1.73e5,2.28e5,2.16e5,12295,inactive
Naa30A (N(alpha)-acetyltransferase 30 A),1,64025,76690,35730,44405,7540,inactive
Sam-S (S-adenosylmethionine Synthetase),1,1.91e5,2.21e5,2.13e5,2.13e5,21000,inactive
aqz (aaquetzalli),1,18490,17090,18420,15830,842,inactive
CG1998,1,1.33e5,1.48e5,2.55e5,2.62e5,9980,inactive
CG5850,1,2.12e5,1.92e5,1.41e5,1.48e5,16265,inactive
vig2,1,2.11e5,2.21e5,2.28e5,3.06e5,16940,inactive
CG10165,1,1.95e5,1.94e5,1.67e5,1.94e5,15045,inactive
CG34025,1,2.44e5,2.50e5,2.17e5,2.00e5,20260,inactive
Nemp (Nuclear envelope integral membrane protein),1,81690,65975,60915,38840,5540,inactive
CG8379,1,83760,87985,97390,74380,6140,inactive

Laid out differently: entries from further up
{"gene": "CG13040", "reagent": 1, "induced reporter light, run 1, well a": 2.30e5, "induced reporter light, run 1, well b": 2.18e5, "control promoter light, run 1, well a": 2.84e5, "control promoter light, run 1, well b": 3.30e5, "uninduced reporter light, run 1, well a": 7325, "outcome": "inactive"}
{"gene": "robl37BC", "reagent": 1, "induced reporter light, run 1, well a": 1.43e5, "induced reporter light, run 1, well b": 73390, "control promoter light, run 1, well a": 86945, "control promoter light, run 1, well b": 78575, "uninduced reporter light, run 1, well a": 5455, "outcome": "inactive"}
{"gene": "Tsp97E (Tetraspanin 97E)", "reagent": 1, "induced reporter light, run 1, well a": 1.74e5, "induced reporter light, run 1, well b": 1.65e5, "control promoter light, run 1, well a": 2.25e5, "control promoter light, run 1, well b": 2.34e5, "uninduced reporter light, run 1, well a": 15645, "outcome": "inactive"}
